# From PubChem BioAssay AID493014 (National Center for Advancing Translational Sciences (NCATS), 2011)
# In all, about 340,000 compounds went through this assay and about 170 (0.05%) were called active. The shares of active, inactive and inconclusive entries below differ from those in the screen. Calls come from the whole dose curve; as a rule, active = well fitted inhibition curve with a large enough effect in the signal ratio, with a control signal flat (not every such curve was filed as active); inconclusive = small, poorly fitted or top-dose-only effect, or effect the other way, or a change in a side signal; inactive = flat fitted curve, though single readings scatter; the % refers to the signal ratio. Where the call is inconclusive, the potency comes from a doubtful curve fit.
# Experiment: qHTS Assay to Find Inhibitors of Chronic Active B-Cell Receptor Signaling;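 for activity change, negative = inhibition: plate controls were basal doxycycline-induced cells for no effect and cells given 10 µM MG132 for full effect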
# Settings: ABC-DLBCL IkBa-CBG/CBR reporter, luminescence ratio (green luciferase fused to IkBa over red control in TMD8 lymphoma cells), 4 h; activity change, negative = inhibition: at 46.1 µM (top of the series) unless noted
# In short: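 Cell line TMD8 (human ABC DLBCL), stably expressing tet-inducible CBG68-IkBa fusion and CBR; IMDM/0.5% FBS; cpd up to 46 uM; dox induction, 4 h, 37C/5% CO2; dual luminescence; green/red ratio; MG132 control.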
# Potency is the fitted concentration of half-maximal effect.
Compound,"activity change, negative = inhibition",Potency
COc1ccc(OCCSc2nc(N)cc(N)n2)cc1,inconclusive: 19.2%,–
O=C(Nc1ccc(C(O)(C(F)(F)F)C(F)(F)F)cc1)c1ccc(Cl)c([N+](=O)[O-])c1,inconclusive: 14.4%,–
Clc1ccc(-c2cn3cc(Cl)ccc3n2)cc1,–,"inconclusive: 31.6 µM [falling, single point]"
O=C(OCC#CCSc1nnc(-c2ccc(Br)cc2)o1)c1cccs1,inconclusive: 2.03%,–
Cc1cn([C@@H](CCCCNC(=O)OC(C)(C)C)C(=O)NCCCCCCCCCCC(=O)N2CCN(C(=O)OC(C)(C)C)CC2)nn1,inconclusive: -24.8%,–
COc1cc(/C=N/N=C(/N)c2nonc2N)cc(Br)c1OCc1ccccc1C,–,"inconclusive: 1.84 µM [rising, full curve, poor fit]"
Cn1c(-c2ccsc2)c(-c2cccs2)c2cc(Br)ccc21,inactive,–
Fc1cccc(CCN2CCNC[C@@H]2CC2CCCCC2)c1,inconclusive: -1.26%,–
C/C(=N\NC(=S)NCCc1ccccc1)c1cccc(Br)c1,–,"inconclusive: 35.5 µM [cytotoxic, single point]"
CCOc1ccc(-n2ccnc(SCC(=O)Nc3ccc(OC)cc3OC)c2=O)cc1,–,"inconclusive: 23.1 µM [falling, single point]"
CCCCNc1nnc(SCC(=O)c2c[nH]c3ccccc23)s1,–,"inconclusive: 29.1 µM [falling, single point]"
O=C(NC1CCCCC1)c1ccc2c(c1)N(Cc1ccccc1Cl)C(=O)c1ccccc1S2,inactive,–
O=C(NCCc1ccccc1)c1ccc(Cl)cc1[N+](=O)[O-],inconclusive: 6.71%,–
CC1CC(N(C(=O)c2ccc(Cl)cc2)c2ccccc2)c2ccccc2N1C(=O)c1ccco1 (configuration not stated),inconclusive: -3.79%,–
COc1ccccc1-n1cnnc1SCC(=O)c1c[nH]c2ccccc12,inconclusive: -18.7%,–
Cn1c(=S)n(/N=C/c2ccc3c(c2)OCO3)c2ccccc21,inactive,–
Cc1ccc(C(=O)Nc2nnc(-c3ccncc3)o2)cc1,–,"inconclusive: 31.6 µM [cytotoxic, single point]"
CCN(CC)S(=O)(=O)c1cc(C(=O)Nc2ccccn2)ccc1C,–,"inconclusive: 3.66 µM [rising, partial curve, poor fit]"
COc1ccc(C2CC(c3ccccc3)=NN2c2ccc(/C=N/NC(=O)c3ccncc3)cc2)cc1 (configuration not stated),inconclusive: 19.8%,–
CCN1CCN(c2ncnc3c2cnn3-c2cccc(C)c2)CC1,inconclusive: 5.55%,–
CN(C)CCC=C1c2ccccc2C=Cc2ccccc21,–,"inconclusive: 29.1 µM [falling, single point]"
CC(C)Nc1nc(NC(C)C)nc(N(C#N)CCOc2ccc(Cl)cc2Cl)n1,–,"inconclusive: 20.6 µM [activator, partial curve, poor fit]"
CCOc1cc(C)c(C(C)C)cc1S(=O)(=O)n1cnc(C)c1,–,"inconclusive: 10 µM [falling, partial curve, poor fit]"
Cc1ccc(N2C(=O)N3[C@H](c4ccc(F)cc4)[C@@H]4C(=O)N(C5CCCCC5)C(=O)[C@@H]4[C@]3(C)C2=O)cc1,–,"inconclusive: 17.8 µM [falling, partial curve]"
O=C(CSc1ncccc1C(=O)Oc1ccccc1Cl)Nc1ccccc1Cl,inconclusive: 6.87%,–
O=C(Cc1ccc(F)cc1)OCN1C(=O)c2ccccc2C1=O,inconclusive: -6.05%,–

# Gathered by group, the compounds so far containing an NH in an aromatic ring.
Compound,"activity change, negative = inhibition",Potency
CCCCNc1nnc(SCC(=O)c2c[nH]c3ccccc23)s1,–,"inconclusive: 29.1 µM [falling, single point]"
COc1ccccc1-n1cnnc1SCC(=O)c1c[nH]c2ccccc12,inconclusive: -18.7%,–

# More entries.

Compound,"activity change, negative = inhibition",Potency
O=S1(=O)c2cccc3cccc(c23)N1Cc1nnc(-c2ccccc2Br)o1,–,"inconclusive: 14.1 µM [falling, partial curve, poor fit]"
COc1ccc(OC)c(-c2csc(N(C)C(=O)Cc3ccccc3)n2)c1,inconclusive: 7.19%,–
O=C1CCc2cc(S(=O)(=O)NC(C(=O)N3CCN(c4ccccn4)CC3)c3ccccc3)ccc2N1 (configuration not stated),inconclusive: 14.5%,–
N#C/C(=C\c1ccc(C#N)cc1)C(=O)c1ccccc1,inconclusive: -1.07%,–
COc1ccccc1/C=C/CN1CCN(c2ccccc2)CC1,–,"inconclusive: 5.17 µM [rising, full curve, poor fit]"
Cc1c(Cl)cccc1NC(=O)CSc1nc(=O)n(Cc2ccco2)c2c1CCC2,–,"inconclusive: 35.5 µM [rising, single point]"
COC(CNC(=O)c1ccc2c(c1)nc(C)n2-c1ccc(F)c(F)c1)OC,–,"inconclusive: 6.51 µM [falling, single point]"
Cc1ccc(-c2nnc(NC(=O)C3=COCCO3)o2)c(C)c1,–,"inconclusive: 29.1 µM [falling, single point]"
CCOC(=O)N1CCN(C(=O)c2ccc3nc4ccc(Cl)cc4c(=O)n3c2)CC1,inconclusive: 0.565%,–
CC(=O)Nc1nc(C2COc3ccccc3O2)cs1 (configuration not stated),inconclusive: -0.734%,–
O=C(NCCCN1CCCC1=O)c1ccc(OC(F)(F)F)cc1,inactive,–
S=C1NC2=C(CCCC2=C2SCCCS2)C(c2ccccc2)N1 (configuration not stated),inactive,–
COC(=O)c1c(C)[nH]c(C(=O)OCC(=O)NCC(C)C)c1C,inconclusive: -4.85%,–
COC(=O)C(NC(=O)c1ccccc1C)(Nc1ncc(S(=O)(=O)c2ccc([N+](=O)[O-])cc2)s1)C(F)(F)F (configuration not stated),inconclusive: 7.55%,–
CN1C(c2ccc(F)cc2)=CS/C1=C(\C#N)c1nnc2n1-c1ccccc1SC2,inactive,–
COc1ccc(C(=O)N/N=C/c2sc(=O)n(Cc3cccc(C(=O)O)c3)c2Cl)cc1,inconclusive: -17.2%,–
O=c1cc(-c2ccccc2)n2c(SCc3ccccc3Cl)nnc2[nH]1,inactive,–
Brc1ccc(-c2ccc(/C=N/Nc3nncc(-c4ccccc4)n3)o2)cc1,inconclusive: -19%,–
O=C(Nc1ccc(Cl)cc1)c1ccc(-n2cccn2)c([N+](=O)[O-])c1,inactive,–
COc1ccccc1N1CCN(C(=O)CSc2ncnc3scc(-c4ccccc4)c23)CC1,–,"inconclusive: 20.6 µM [falling, partial curve, poor fit]"
COc1ccccc1CNCC(O)(c1ccc(F)cc1)c1ccc(F)cc1,inconclusive: -11.5%,–
O=C1CN(S(=O)(=O)c2ccc(F)cc2)CCN1,inactive,–
Cc1nc2c(cnn2-c2ccccc2)c(=O)n1/N=C/c1ccccc1,inconclusive: -4.42%,–
Cc1cc(C)c2c(c1)/C(=C/C(=O)c1ccc(Br)s1)C(=O)N2,–,"inconclusive: 29.1 µM [falling, single point]"
Cc1cc(NC(=O)CSCC(=O)Nc2nc3c(C)cccc3s2)no1,inconclusive: 1.19%,–
Cc1cc(NCc2ccco2)nc2cc(O)ccc12,inconclusive: -9.36%,–

Compound,"activity change, negative = inhibition",Potency
CCOc1ccc(NC(=O)c2cc(S(=O)(=O)N3CCN(c4ccccc4F)CC3)ccc2F)cc1,inactive,–
O=C(Nc1ccc2nc(-c3cccs3)c(-c3cccs3)nc2c1)NC1CC1,–,"inconclusive: 18.4 µM [falling, single point]"
CC1CCCCC1NC(=O)COC(=O)c1ccc(N(C)C)cc1 (configuration not stated),inactive,–
COc1ccc(OCC(=O)Nc2cccc(OC)c2)cc1,–,"inconclusive: 5.17 µM [falling, single point]"
Cc1ccc(S(=O)(=O)c2nc(-c3ccccc3Cl)oc2NCCCN2CCOCC2)cc1,–,"inconclusive: 11.2 µM [falling, partial curve]"
c1ccc2c(c1)OCC(CNCC1COc3ccccc3O1)O2 (configuration not stated),inconclusive: 14.8%,–
Cc1nnc2ccc(-c3ccc(NS(=O)(=O)c4ccc(F)cc4F)cc3)nn12,–,"inconclusive: 18.4 µM [falling, partial curve, poor fit]"
Cc1cc(C(=O)NC2CCCCCC2)c2ccccc2n1,inactive,–
Cn1ccnc1Sc1ccc(/C=N/NC(=O)c2ccccc2O)cc1[N+](=O)[O-],–,"inconclusive: 20.6 µM [falling, single point]"
CSCCC(NC(N)=O)C(=O)NCc1cccc(Cl)c1 (configuration not stated),inconclusive: 17.5%,–
Cc1ccc(NC(=O)CSc2nnc(-c3n[nH]c4ccccc34)n2-c2ccccc2)c(C)c1,inconclusive: 18.7%,–
Cc1cc(NS(=O)(=O)c2ccc(NC(=O)CCCOc3cccc(C)c3C)cc2)no1,inconclusive: -0.379%,–
COc1ccc(C2=Nn3c(nnc3-c3ccccn3)SC2)cc1OC,–,"inconclusive: 10 µM [falling, partial curve]"
CCCCC1(C(=O)OC)NC(c2ccc(O)cc2)C2C(=O)N(c3ccccc3)C(=O)C21 (configuration not stated),inconclusive: 10.2%,–
CN1C(=O)c2cccc(NCCCN3C(=O)c4ccccc4C3=O)c2C1=O,inconclusive: 5.62%,–
COC(=O)c1sc2nc(SCC(=O)N(C)c3ccccc3)n(N)c(=O)c2c1C,inconclusive: -19.3%,–
COc1cc(C(=O)OCC(C)=O)ccc1OCc1c(C)noc1C,inactive,–
COc1ccc(NC(=O)COc2ccc(C)nc2[N+](=O)[O-])cc1S(N)(=O)=O,inactive,–
COc1ccc(/C(N)=N/OC(=O)/C=C/c2ccccc2)cc1,inconclusive: 4.22%,–
Cc1ccc(S(=O)(=O)N2CCN(C(=O)C3CCCCC3)CC2)cc1,inconclusive: -0.983%,–
COc1ccc(-c2ccnc3c(C#N)cnn23)cc1,inconclusive: 0.296%,–
CCn1c(C(=O)OC)cc2c1ccn2-c1ccc(F)cc1,inconclusive: 7.34%,–
O=C(CC(=O)Nc1cccc(Cl)c1Cl)Nc1cccc(Cl)c1Cl,inactive,–
CC(=O)c1cc(CN2CCN(Cc3ccccc3)C(CCO)C2)cs1 (configuration not stated),inconclusive: -12.6%,–
Cc1ccc(C)c(Sc2ccc(S(=O)(=O)Nc3ccc(C(=O)O)cc3)cc2)c1,inconclusive: -2.02%,–
